{"source": "PubChem BioAssay AID1259262 (Sanger Institute, 2017)", "assay": "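Single siRNAs working synergistically with trametinib, BYL719 or cetuximab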 (follow-up of hits)", "cells": "LS513 human colorectal cancer cells", "knock-down reagent": "single siRNA against human genes", "treatment": "anchor drug or DMSO vehicle: cetuximab 5 µg/ml, trametinib 10 nM or BYL719 1 µM; exposure length not given", "detection": "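Cell viability relative to non-targeting control siRNA, and a synergy score for each anchor drug, averaged over replicates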", "reading the numbers": "synergy score with trametinib and synergy score with BYL719 and synergy score with cetuximab: higher = stronger synergistic loss of viability with drug", "active means": "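Active when the synergy score is above 0.10 for trametinib, BYL719 or cetuximab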", "meaning of the calls": "active = synergy with at least one drug; inactive = no synergy with any drug", "note": "The deposit covers 160 reagents; shown is a random part of them. 93 of all reagents (58%) count as active. 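Calls refer to single siRNAs; gene-level validation required two or more siRNAs in several lines; synergy score formula unstated.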 The numbers tell different reagents against one gene apart. Not all columns of the deposit are shown. Not given: the amount of reagent, the time to read-out."}
{"Target gene": "IRAK3", "siRNA no.": 1, "synergy score with trametinib": 0.217, "synergy score with BYL719": -0.142, "synergy score with cetuximab": 0.0632, "activity call": "active"}
{"Target gene": "IRAK3", "siRNA no.": 2, "synergy score with trametinib": 0.378, "synergy score with BYL719": 0.0628, "synergy score with cetuximab": 0.166, "activity call": "active"}
{"Target gene": "IRAK3", "siRNA no.": 3, "synergy score with trametinib": 0.12, "synergy score with BYL719": -0.0575, "synergy score with cetuximab": -0.0195, "activity call": "active"}
{"Target gene": "IRAK3", "siRNA no.": 4, "synergy score with trametinib": 0.0643, "synergy score with BYL719": -0.00671, "synergy score with cetuximab": -0.11, "activity call": "inactive"}
{"Target gene": "ACVR1", "siRNA no.": 1, "synergy score with trametinib": 0.0925, "synergy score with BYL719": -0.118, "synergy score with cetuximab": -0.11, "activity call": "inactive"}
{"Target gene": "ACVR1", "siRNA no.": 2, "synergy score with trametinib": 0.183, "synergy score with BYL719": -0.226, "synergy score with cetuximab": -0.0895, "activity call": "active"}
{"Target gene": "ACVR1", "siRNA no.": 3, "synergy score with trametinib": 0.307, "synergy score with BYL719": -0.226, "synergy score with cetuximab": -0.11, "activity call": "active"}
{"Target gene": "ACVR1", "siRNA no.": 4, "synergy score with trametinib": 0.176, "synergy score with BYL719": -0.126, "synergy score with cetuximab": -0.0295, "activity call": "active"}
{"Target gene": "CDK6", "siRNA no.": 1, "synergy score with trametinib": 0.0786, "synergy score with BYL719": -0.0255, "synergy score with cetuximab": 0.0454, "activity call": "inactive"}
{"Target gene": "CDK6", "siRNA no.": 2, "synergy score with trametinib": 0.0618, "synergy score with BYL719": -0.14, "synergy score with cetuximab": 0.0054, "activity call": "inactive"}
{"Target gene": "CDK6", "siRNA no.": 3, "synergy score with trametinib": 0.0717, "synergy score with BYL719": -0.15, "synergy score with cetuximab": -0.0154, "activity call": "inactive"}
{"Target gene": "CDK6", "siRNA no.": 4, "synergy score with trametinib": 0.213, "synergy score with BYL719": -0.0968, "synergy score with cetuximab": 0.0988, "activity call": "active"}
{"Target gene": "CSNK2A2", "siRNA no.": 1, "synergy score with trametinib": 0.136, "synergy score with BYL719": -0.201, "synergy score with cetuximab": -0.11, "activity call": "active"}
{"Target gene": "CSNK2A2", "siRNA no.": 2, "synergy score with trametinib": 0.101, "synergy score with BYL719": -0.236, "synergy score with cetuximab": 0.0584, "activity call": "active"}
{"Target gene": "CSNK2A2", "siRNA no.": 3, "synergy score with trametinib": 0.143, "synergy score with BYL719": -0.063, "synergy score with cetuximab": -0.131, "activity call": "active"}
{"Target gene": "CSNK2A2", "siRNA no.": 4, "synergy score with trametinib": 0.113, "synergy score with BYL719": -0.148, "synergy score with cetuximab": -0.0143, "activity call": "active"}
{"Target gene": "CRIM1", "siRNA no.": 1, "synergy score with trametinib": 0.0381, "synergy score with BYL719": -0.0409, "synergy score with cetuximab": -0.216, "activity call": "inactive"}
{"Target gene": "CRIM1", "siRNA no.": 2, "synergy score with trametinib": 0.139, "synergy score with BYL719": -0.195, "synergy score with cetuximab": -0.0313, "activity call": "active"}
{"Target gene": "CRIM1", "siRNA no.": 3, "synergy score with trametinib": 0.293, "synergy score with BYL719": 0.106, "synergy score with cetuximab": -0.0327, "activity call": "active"}
{"Target gene": "CRIM1", "siRNA no.": 4, "synergy score with trametinib": 0.311, "synergy score with BYL719": -0.143, "synergy score with cetuximab": -0.202, "activity call": "active"}

Limited to “synergy score with trametinib”, for 3 of the entries above:
CDK6 #3 = 0.0717
CDK6 #4 = 0.213
CSNK2A2 #1 = 0.136
